Assay results taken from publication PMC12282152.
Results are given in words; binding and its absence hold for the method and conditions named. In cells and extracts the contact can be indirect. For some of these results: A result given as binding can be weak or reduced; the word gives no strength. Sequences can lack the tags named with a protein.

T1: V5-tagged SHFV nsp2 (wild type) (simian hemorrhagic fever virus (SHFV)) (UniProt Q68772)
T1 sequence: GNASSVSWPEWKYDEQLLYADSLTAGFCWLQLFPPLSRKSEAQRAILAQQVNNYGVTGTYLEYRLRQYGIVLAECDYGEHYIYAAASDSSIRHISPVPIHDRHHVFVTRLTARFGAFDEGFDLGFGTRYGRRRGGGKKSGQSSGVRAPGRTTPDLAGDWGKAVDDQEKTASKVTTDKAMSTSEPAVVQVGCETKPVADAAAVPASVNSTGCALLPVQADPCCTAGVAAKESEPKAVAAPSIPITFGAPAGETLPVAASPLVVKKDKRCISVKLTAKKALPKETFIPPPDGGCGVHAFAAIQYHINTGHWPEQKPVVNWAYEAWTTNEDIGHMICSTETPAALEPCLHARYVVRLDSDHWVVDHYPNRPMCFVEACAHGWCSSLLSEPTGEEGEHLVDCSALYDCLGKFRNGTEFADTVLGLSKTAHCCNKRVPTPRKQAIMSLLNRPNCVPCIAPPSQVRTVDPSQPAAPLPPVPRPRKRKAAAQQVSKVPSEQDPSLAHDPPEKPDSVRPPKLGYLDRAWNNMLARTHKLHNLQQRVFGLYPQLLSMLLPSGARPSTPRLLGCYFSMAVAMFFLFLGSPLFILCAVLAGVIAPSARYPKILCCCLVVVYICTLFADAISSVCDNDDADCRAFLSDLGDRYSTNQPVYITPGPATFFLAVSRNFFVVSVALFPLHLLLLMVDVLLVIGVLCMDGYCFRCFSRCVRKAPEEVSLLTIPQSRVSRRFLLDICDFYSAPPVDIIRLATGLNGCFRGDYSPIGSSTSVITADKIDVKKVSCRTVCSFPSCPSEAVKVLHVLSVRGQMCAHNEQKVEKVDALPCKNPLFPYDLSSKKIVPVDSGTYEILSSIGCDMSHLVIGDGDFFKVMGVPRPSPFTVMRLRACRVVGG

T2: V5-tagged SHFV nsp3 (simian hemorrhagic fever virus (SHFV)) (UniProt Q68772)
T2 sequence: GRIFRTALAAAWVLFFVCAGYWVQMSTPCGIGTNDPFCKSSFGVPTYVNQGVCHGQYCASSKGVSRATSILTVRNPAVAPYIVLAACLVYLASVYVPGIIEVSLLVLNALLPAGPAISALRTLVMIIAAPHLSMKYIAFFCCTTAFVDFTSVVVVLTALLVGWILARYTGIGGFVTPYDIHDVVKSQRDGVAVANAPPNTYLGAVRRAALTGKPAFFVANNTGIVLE

B1: V5-tagged SHFV nsp2 (wild type) (protein, UniProt Q68772 351-1236)
chain: T1 sequence
B2: V5-tagged SHFV nsp3 (protein, UniProt Q68772 1237-1463)
chain: T2 sequence

Key:
[1] = target: T1, V5-tagged SHFV nsp2 (wild type) (simian hemorrhagic fever virus (SHFV)); assay: co-IP; whole-cell lysates of MA104 cells (transfected, or SHFV-infected and transfected) in IP lysis buffer; V5-tagged viral protein precipitated with V5-Trap magnetic agarose, 4°C, 2 h; Western blot with anti-G3BP1 and anti-V5
[2] = target: T2, V5-tagged SHFV nsp3 (simian hemorrhagic fever virus (SHFV)); assay: as above
[3] = target: Ras GTPase-activating protein binding protein 1 (G3BP1) (African green monkey (endogenous in MA104)); assay: co-IP; whole-cell lysates of MA104 cells (SHFV-infected, transfected, or transfected and infected) in IP lysis buffer; endogenous G3BP1 precipitated with rabbit anti-G3BP1 antibody and Protein A magnetic beads, 4°C; rabbit IgG control; Western blot with anti-nsp1 or anti-V5 antibodies

Molecule | binding [1] | binding [2] | binding [3]
Ras GTPase-activating protein binding protein 1 (G3BP1) | binds | no binding | –
B1 | – | – | binds
B2 | – | – | no binding
